Among the data in paper doi:10.1101/2023.01.17.524371 are binding values, retold here.

Protein sequences, listed by entry. Tags and fused reporters are not part of them.
UniProt Q13263: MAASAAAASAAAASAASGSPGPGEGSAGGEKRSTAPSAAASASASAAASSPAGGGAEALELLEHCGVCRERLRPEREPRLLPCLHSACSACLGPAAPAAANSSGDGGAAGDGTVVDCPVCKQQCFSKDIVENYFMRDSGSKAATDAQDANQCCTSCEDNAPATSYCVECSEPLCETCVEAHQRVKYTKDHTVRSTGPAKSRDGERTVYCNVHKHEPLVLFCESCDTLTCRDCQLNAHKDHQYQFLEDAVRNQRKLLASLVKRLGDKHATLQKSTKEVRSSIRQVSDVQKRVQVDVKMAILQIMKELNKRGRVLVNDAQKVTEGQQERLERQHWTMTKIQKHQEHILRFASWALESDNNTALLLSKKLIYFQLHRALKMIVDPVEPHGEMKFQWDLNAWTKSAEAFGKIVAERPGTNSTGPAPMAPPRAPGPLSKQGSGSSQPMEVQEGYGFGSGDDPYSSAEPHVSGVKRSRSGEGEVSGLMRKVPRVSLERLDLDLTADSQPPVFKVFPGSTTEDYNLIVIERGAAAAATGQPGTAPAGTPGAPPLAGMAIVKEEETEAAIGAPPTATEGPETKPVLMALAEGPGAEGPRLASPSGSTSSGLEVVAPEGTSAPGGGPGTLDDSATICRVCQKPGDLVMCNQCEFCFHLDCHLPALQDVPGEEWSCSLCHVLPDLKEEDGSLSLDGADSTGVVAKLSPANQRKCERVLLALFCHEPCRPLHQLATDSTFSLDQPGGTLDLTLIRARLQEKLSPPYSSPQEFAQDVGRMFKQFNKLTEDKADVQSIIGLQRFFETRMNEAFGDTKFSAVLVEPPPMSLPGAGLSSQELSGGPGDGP
UniProt Q13547: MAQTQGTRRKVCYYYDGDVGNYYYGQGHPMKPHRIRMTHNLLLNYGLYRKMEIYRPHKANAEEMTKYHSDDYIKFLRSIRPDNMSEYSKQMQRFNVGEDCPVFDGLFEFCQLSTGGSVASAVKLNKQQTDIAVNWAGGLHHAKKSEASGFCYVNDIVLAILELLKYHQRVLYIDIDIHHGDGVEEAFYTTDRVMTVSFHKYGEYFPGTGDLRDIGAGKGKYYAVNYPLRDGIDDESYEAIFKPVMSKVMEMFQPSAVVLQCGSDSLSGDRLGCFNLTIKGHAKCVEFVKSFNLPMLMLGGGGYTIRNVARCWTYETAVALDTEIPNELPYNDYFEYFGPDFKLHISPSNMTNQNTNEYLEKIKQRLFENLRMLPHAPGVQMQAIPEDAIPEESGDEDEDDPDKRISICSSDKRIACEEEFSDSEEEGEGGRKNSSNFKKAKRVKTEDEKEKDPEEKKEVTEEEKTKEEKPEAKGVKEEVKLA

No constants are given. Whether binding was seen depends on the method and setting. In cells and extracts the contact can be indirect. Some results given as binding are weak or reduced against the parent protein; the word gives no strength.

The experiment addresses TRIM28 (human (endogenous in HCT-15)) (UniProt Q13263). Put plainly: co-IP.

Consider HDAC1 (from UniProt Q13547 1-482), for which the binding result is reported as “binds”.
